US20150078996A1 (Merck Sharp & Dohme, published 2015)
No constants are given. Whether binding was seen depends on the method and setting. Some entries that bind do so weakly or less than the wild type.

Sequences of proteins named here, by UniProt entry; tags and fusion partners are left off. Residues count along the entry.
UniProt P08069, residues 31-1367: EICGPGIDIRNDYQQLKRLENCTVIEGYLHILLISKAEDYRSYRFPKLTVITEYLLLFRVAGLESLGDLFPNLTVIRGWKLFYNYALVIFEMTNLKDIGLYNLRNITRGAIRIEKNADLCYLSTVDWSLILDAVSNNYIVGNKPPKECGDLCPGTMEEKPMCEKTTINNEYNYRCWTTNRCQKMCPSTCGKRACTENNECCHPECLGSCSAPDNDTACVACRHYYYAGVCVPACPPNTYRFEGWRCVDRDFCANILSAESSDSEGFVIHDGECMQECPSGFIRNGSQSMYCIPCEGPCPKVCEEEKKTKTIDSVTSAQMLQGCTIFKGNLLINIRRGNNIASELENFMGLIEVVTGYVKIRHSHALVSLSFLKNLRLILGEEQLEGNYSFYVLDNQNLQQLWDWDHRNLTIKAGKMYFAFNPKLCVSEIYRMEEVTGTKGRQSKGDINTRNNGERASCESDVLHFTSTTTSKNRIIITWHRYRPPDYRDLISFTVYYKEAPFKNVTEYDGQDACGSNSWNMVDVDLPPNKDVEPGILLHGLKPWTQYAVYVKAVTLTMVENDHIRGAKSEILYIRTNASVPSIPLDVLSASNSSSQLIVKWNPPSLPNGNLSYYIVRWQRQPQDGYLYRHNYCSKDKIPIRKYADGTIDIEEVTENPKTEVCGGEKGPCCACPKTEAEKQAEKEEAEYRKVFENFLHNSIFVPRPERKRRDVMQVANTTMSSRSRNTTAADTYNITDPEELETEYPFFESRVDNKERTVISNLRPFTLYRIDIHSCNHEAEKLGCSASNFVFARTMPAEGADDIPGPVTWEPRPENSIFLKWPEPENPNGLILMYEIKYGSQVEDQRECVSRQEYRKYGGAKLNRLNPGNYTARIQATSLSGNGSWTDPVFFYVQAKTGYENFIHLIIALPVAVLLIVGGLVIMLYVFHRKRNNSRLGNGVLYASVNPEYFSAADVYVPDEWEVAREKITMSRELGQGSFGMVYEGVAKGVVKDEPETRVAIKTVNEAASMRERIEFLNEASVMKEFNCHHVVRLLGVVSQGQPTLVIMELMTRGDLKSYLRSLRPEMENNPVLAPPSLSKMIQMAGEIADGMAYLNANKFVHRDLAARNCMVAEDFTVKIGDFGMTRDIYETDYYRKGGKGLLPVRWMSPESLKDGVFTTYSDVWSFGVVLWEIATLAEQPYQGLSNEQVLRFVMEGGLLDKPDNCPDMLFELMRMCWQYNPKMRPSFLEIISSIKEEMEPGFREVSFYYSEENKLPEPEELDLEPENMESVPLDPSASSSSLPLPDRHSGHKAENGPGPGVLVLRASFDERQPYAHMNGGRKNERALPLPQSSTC
UniProt P01344, residues 25-91: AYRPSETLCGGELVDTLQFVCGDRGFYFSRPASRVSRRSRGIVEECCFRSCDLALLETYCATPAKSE

Molecular target: full length hIGF-1R from membrane extracts of NIH 3T3 cells overexpressing IGF-1R (human) (UniProt P08069)
Test: competition with 100 pM 125I-IGF-1 for hIGF-1R captured by mAb 17-69 on Protein A FlashPlate

**Q.** Which binding does the source give for “IGF-2 (from UniProt P01344 25-91) (ligand)” here?
**A.** The binding was “binds”.
